Laboratory results taken from the supplement of paper PMC12889115.
This is one part of the list. Values are raw readings; no control value is given beside them.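 In the initial screen, polymyxin B was used at a concentration that permeabilizes Salmonella's outer membrane but not its inner membrane. Maximum growth was set by DMSO wells with or without polymyxin B. Since plates varied, data were ranked per plate, and compounds giving the lowest OD600 advanced as hits.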

Tested on: Salmonella enterica serovar Typhimurium SL1344
Test: bacterial growth OD600 after 18 h with compound and polymyxin B; higher = more bacterial growth (less inhibition)
Settings: 50 µM, Mueller-Hinton broth

| SMILES | bacterial growth OD600 (polymyxin B 0.75 µg/mL) | bacterial growth OD600 (polymyxin B 1 µg/mL) |
| --- | --- | --- |
| CC(C)Cc1cc(C(=O)N2CCOc3ccc(CN4CCc5sccc5C4)cc3C2)n(C)n1 | 0.743 |  |
| OCC1CCCCN1Cc1nc(Cc2ccccc2Cl)no1 (stereo not given) |  | 0.832 |
| COc1ccc(-c2cnnc(N(C)CCC3CCCCO3)n2)cc1 (stereo not given) |  | 0.897 |
| CCCc1cc(CN(C)C(=O)CC2(c3cccc(C(F)(F)F)c3)CC(=O)N(C3CC3)C2=O)n[nH]1 (stereo not given) | 0.058 |  |
| CCN1CC(CNC(=O)c2cc(NS(=O)(=O)CC)cc3nc(-c4ccccc4)n(C)c23)CC1=O (stereo not given) | 0.863 |  |
| OC(Cc1ccccc1)c1ccc2c(c1)CN(Cc1ccc(OC(F)F)cc1)CCO2 (stereo not given) | 0 |  |
| COc1ccccc1CCNC(=O)Cc1ccc(N2CCC(NCCc3ccco3)CC2)cc1 | 0.821 |  |
| CC(C)CCC(=O)N1CCOc2ccc(C(C)(O)CN(C)C)cc2C1 (stereo not given) | 0.915 |  |
| CCCCc1nc2cc(C(=O)N3CCC(Oc4ccccc4F)CC3)ccc2o1 | 0.225 |  |
| CCN1CCN(C2(C(=O)N(C)Cc3cc(C)[nH]n3)Cc3ccccc3C2)CC1 | 0.843 |  |
| COCCNC(=O)c1ccc(OC)cc1OC1CCN(C2CCCC(C)(C)C2)CC1 (stereo not given) |  | 1.12 |
| CN(Cc1nc2ccccc2o1)C(=O)c1ccc2nc(C3CCCCC3)oc2c1 |  | 0.852 |
| COc1ccc(CCCNC(=O)c2ccc(N3CCC(N(C)C)C3)nc2)cc1 (stereo not given) |  | 1.08 |
| CC[C@H](C)[C@H](NC(=O)c1cccc(OC2CCN(S(C)(=O)=O)CC2)c1)C(=O)OC |  | 1.05 |
| CN(CCN1CCOCC1)C(=O)CC(c1ccccc1)c1ccccc1F (stereo not given) |  | 1.08 |
| COc1cccc(CCNc2ccc(-c3nc(C4CC4)no3)cn2)c1OC | 0.488 |  |
| O=C(CCOc1ccccc1)N1CCCC(Nc2ccccc2)C1 (stereo not given) |  | 0.736 |
| CC1(C)Cc2nc(N3CCOCC3)ncc2C(NC(=O)CC2=CCCCC2)C1 (stereo not given) | 0.649 |  |
| O=C(NCC1Cc2cc(F)cc(-c3ccccn3)c2O1)c1ccc(F)cc1 (stereo not given) | 0.748 |  |
| COc1cccc(N2C(=O)CN(C(=O)c3ccc4nccnc4c3)CC2C)c1 (stereo not given) | 0.836 |  |
| O=C([C@H]1C[C@@H]2C=C[C@H]1C2)N1CCC(C2(c3ccccn3)NC(=O)N(CCc3cccs3)C2=O)CC1 (stereo not given in full) | 0.942 |  |
| Cc1ccc(OCC(=O)N2CCC(CCC(=O)Nc3ccccc3)CC2)cc1 |  | 0.786 |
| C=Cc1ccc(C(=O)N2CCCC(Nc3ccc(OC)cc3)C2)cc1 (stereo not given) |  | 0.989 |
| O=C1CCC(CCC(=O)N2CCC[C@H]2CO)(Cc2ccc3ccccc3c2)N1 (stereo not given in full) | 0.847 |  |
| CN(CCc1ccccn1)c1ncccc1CNC(=O)C1CCCCCC1 | 0.647 |  |
| O=C(NCC1CCS(=O)(=O)C1)C1(N2CCCCC2)Cc2ccccc2C1 (stereo not given) | 0.704 |  |
| CCN1CCC(C(=O)N2CCCC(CCc3ccc(F)c(F)c3)C2)CC1 (stereo not given) | 0.838 |  |
| CCOC(=O)C1(CCOc2ccccc2)CCCN(C(=O)CCc2cnn(C)c2)C1 (stereo not given) |  | 0.821 |
| COCC1CCN(C(=O)c2cc(Cn3c(C)nc4ccccc43)[nH]n2)C1 (stereo not given) |  | 0.917 |
| COc1cc(CC2(CCC(=O)NC(C)c3cccc4ccccc34)CCC(=O)N2)ccc1F (stereo not given) | 0.796 |  |

Another view of 2 compounds above.
SMILES	bacterial growth OD600 (polymyxin B 0.75 µg/mL)	bacterial growth OD600 (polymyxin B 1 µg/mL)
CC1(C)Cc2nc(N3CCOCC3)ncc2C(NC(=O)CC2=CCCCC2)C1 (stereo not given)	0.649	
O=C(NCC1Cc2cc(F)cc(-c3ccccn3)c2O1)c1ccc(F)cc1 (stereo not given)	0.748	
